# Patent WO2019173771A1
# Results are given in words; binding and its absence hold for the method and conditions named. Binding can be weak; no strength is given.
# Target: cynomolgus CD147 on the cynomolgus primary kidney epithelial cell line (cynomolgus monkey)
# Assay: FACS on cynomolgus primary kidney epithelial cells
binder,measurement,value
"humanized anti-human CD147 hu3A11 antibody (3A11 Lc1 / Hc1) (antibody, V domains shown) VH: EVQLVESGGGLVQPGGSLRLSCAASGFTFSNYWMDWVRQAPGKGLEWVGEIRLKSYNYATHYAASVKGRFTISRDDSKNSVYLQMNSLKTEDTAVYYCTAAGTDYWGQGTLVTVSS VL: DIQMTQSPSSLSASVGDRVTITCRASQSVRTDVGWYQQKPGKAPKLLIYYSSNRYTGVPSRFSGSGSGTDFTLTISSLQPEDFATYYCQQDYSSPYTFGQGTKLEIK",binding,binds
